Data source: PubChem BioAssay AID1224828 (NIAID, 2016)

Screen: 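Knock-downs that increase or decrease LPS-induced p65 nuclear translocation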 (primary screen)
Cell system: mouse RAW264.7 G9 macrophage reporter cells (GFP-p65, Tnf promoter-mCherry)
Reagents: siRNA pool against mouse genes, 100 nM
Timing: 2 days siRNA transfection, then 40 min LPS before fixation
Challenge: LPS (Salmonella minnesota R595) at 10 ng/ml
Detection: 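Imaged p65 nuclear translocation ratio, normalised to the plate median, converted to robust z-scores and averaged across two replicates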
Direction: p65 translocation robust z-score: higher = more nuclear NF-kappaB p65 after LPS than the plate median; nuclear/cytoplasmic p65 ratio: higher = more nuclear NF-kappaB p65
Hit rule: 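Called active when z exceeds 3.3 or falls under -1.56 (median of Tlr4 controls), giving activity score of at least 50; no calls for control wells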
Meaning of the calls: active = hit (p65 shift raised or lowered); inactive = no clear change
The whole screen tested about 17,000 reagents; below is a random part of them. Over the whole deposit, 762 (4.5%) are marked active. 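Active calls include both raised and lowered p65 entry, mostly lowered; wells with fewer than 50 cells lack a z-score.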 Raw values are not corrected between plates. The numbers tell different reagents against one gene apart. No sequences are given here.

Target gene,reagent,p65 translocation robust z-score,"nuclear/cytoplasmic p65 ratio, rep 1","nuclear/cytoplasmic p65 ratio, rep 2",low cell count flag,activity call
Mpzl2 (myelin protein zero-like 2),1,-0.12,1.56,1.41,enough cells to score,inactive
Art1 (ADP-ribosyltransferase 1),1,0.08,1.56,1.7,enough cells to score,inactive
Dnaaf9 (dynein axonemal assembly factor 9),1,1.15,1.31,1.44,enough cells to score,inactive
"Serpina1d (serine (or cysteine) peptidase inhibitor, clade A, member 1D)",1,-0.48,1.34,1.63,enough cells to score,inactive
Zbtb24 (zinc finger and BTB domain containing 24),1,,1.39,1.52,fewer than 50 cells per well; well left out of scoring,inactive
Slc26a1,1,-0.4,1.27,1.21,enough cells to score,inactive
Ruvbl2 (RuvB-like AAA ATPase 2),1,-0.44,1.47,1.36,enough cells to score,inactive
Ston2 (stonin 2),1,-0.96,1.21,1.13,enough cells to score,inactive
Hrh1 (histamine receptor H1),1,0.27,1.54,1.63,enough cells to score,inactive
Gsk3b (glycogen synthase kinase 3 beta),1,1.38,1.84,1.62,enough cells to score,inactive
Or52n5 (olfactory receptor family 52 subfamily N member 5),1,-0.13,1.44,1.24,enough cells to score,inactive
Or5b117 (olfactory receptor family 5 subfamily B member 117),1,0.42,1.65,1.5,enough cells to score,inactive
F2r (coagulation factor II thrombin receptor),1,-0.4,1.43,1.55,enough cells to score,inactive
Pcdha3 (protocadherin alpha 3),1,0,1.38,1.29,enough cells to score,inactive
Hook3 (hook microtubule tethering protein 3),1,-1.13,1.52,1.34,enough cells to score,inactive
"Pfkp (phosphofructokinase, platelet)",1,-0.94,1.58,1.23,enough cells to score,inactive
Ubap2 (ubiquitin-associated protein 2),1,-1.85,1.41,1.1,enough cells to score,active
Mtmr14 (myotubularin related protein 14),1,1.87,1.67,1.83,enough cells to score,inactive
Dhrs1 (dehydrogenase/reductase 1),1,0.99,1.67,1.74,enough cells to score,inactive
Or5an6 (olfactory receptor family 5 subfamily AN member 6),1,2.42,2.03,1.69,enough cells to score,inactive
"Aff2 (AF4/FMR2 family, member 2)",1,-0.34,1.44,1.27,enough cells to score,inactive
Prmt5 (protein arginine N-methyltransferase 5),1,-1.51,1.34,1.36,enough cells to score,inactive
Adora3 (adenosine A3 receptor),1,-0.1,1.46,1.61,enough cells to score,inactive
Adora3 (adenosine A3 receptor),2,-0.59,1.82,1.34,enough cells to score,inactive
"Fam13b (family with sequence similarity 13, member B)",1,1.97,1.71,1.97,enough cells to score,inactive
Slc25a40,1,-0.9,1.45,1.41,enough cells to score,inactive
Fcho1 (FCH domain only 1),1,1.73,1.82,1.72,enough cells to score,inactive
"Fancm (Fanconi anemia, complementation group M)",1,0.49,1.74,1.69,enough cells to score,inactive
Anapc5 (anaphase-promoting complex subunit 5),1,0.5,1.68,1.7,enough cells to score,inactive
Ibtk (inhibitor of Bruton agammaglobulinemia tyrosine kinase),1,-0.91,1.51,1.45,enough cells to score,inactive
1700019M22Rik (RIKEN cDNA 1700019M22 gene),1,0.68,1.53,1.51,enough cells to score,inactive
Glrx2 (glutaredoxin 2),1,0.93,1.51,1.54,enough cells to score,inactive
Or1b1 (olfactory receptor family 1 subfamily B member 1),1,,1.44,1.38,fewer than 50 cells per well; well left out of scoring,inactive
"Grm7 (glutamate receptor, metabotropic 7)",1,-1.48,1.26,1.41,enough cells to score,inactive
Fhip1b (FHF complex subunit HOOK interacting protein 1B),1,1.37,1.45,1.28,enough cells to score,inactive
Il20 (interleukin 20),1,,1.3,1.22,fewer than 50 cells per well; well left out of scoring,inactive
"Lama1 (laminin, alpha 1)",1,2.07,1.8,1.61,enough cells to score,inactive
Tmc4 (transmembrane channel-like gene family 4),1,,1.35,1.17,fewer than 50 cells per well; well left out of scoring,inactive
Creb5 (cAMP responsive element binding protein 5),1,0.41,1.59,1.38,enough cells to score,inactive
Creb5 (cAMP responsive element binding protein 5),2,-3.16,1.01,1.09,enough cells to score,active
"Fam76b (family with sequence similarity 76, member B)",1,1.84,1.51,1.27,enough cells to score,inactive
Rassf10,1,-0.95,1.22,1.15,enough cells to score,inactive
Lrrc10 (leucine rich repeat containing 10),1,-2.19,1.39,1.21,enough cells to score,active
Gpr132 (G protein-coupled receptor 132),1,-1.51,1.32,1.34,enough cells to score,inactive
Slc9a7,1,0.31,1.38,1.61,enough cells to score,inactive
Lypd8l (LY6/PLAUR domain containing 8 like),1,,1.5,1.28,fewer than 50 cells per well; well left out of scoring,inactive
Mybl1 (Myb proto-oncogene like 1),1,0.51,1.48,1.43,enough cells to score,inactive
Trim60 (tripartite motif-containing 60),1,-1.6,1.21,1.03,enough cells to score,active
Olfml3 (olfactomedin-like 3),1,1.27,1.95,1.68,enough cells to score,inactive
"Naip2 (NLR family, apoptosis inhibitory protein 2)",1,1.29,1.63,1.68,enough cells to score,inactive
Kctd2 (potassium channel tetramerisation domain containing 2),1,-1.12,1.36,1.31,enough cells to score,inactive
Mpzl3 (myelin protein zero-like 3),1,-1.85,1.14,1.26,enough cells to score,active
P3h4 (prolyl 3-hydroxylase family member 4 (non-enzymatic)),1,-0.36,1.39,1.49,enough cells to score,inactive
Tmem169 (transmembrane protein 169),1,2.3,1.66,1.86,enough cells to score,inactive
Cox15 (cytochrome c oxidase assembly protein 15),1,-0.03,1.54,1.32,enough cells to score,inactive
"Prl3c1 (prolactin family 3, subfamily c, member 1)",1,0.79,1.57,1.23,enough cells to score,inactive
Zfpl1 (zinc finger like protein 1),1,1.33,1.59,1.23,enough cells to score,inactive
Zfp935 (zinc finger protein 935),1,,1.31,1.33,fewer than 50 cells per well; well left out of scoring,inactive
Fbln7 (fibulin 7),1,-0.1,1.57,1.39,enough cells to score,inactive

Limited to “nuclear/cytoplasmic p65 ratio, rep 1”, for 7 of the entries above:
Adora3 (adenosine A3 receptor) #1 = 1.46
Adora3 (adenosine A3 receptor) #2 = 1.82
Fam13b (family with sequence similarity 13, member B) = 1.71
Slc25a40 = 1.45
Fcho1 (FCH domain only 1) = 1.82
Fancm (Fanconi anemia, complementation group M) = 1.74
Anapc5 (anaphase-promoting complex subunit 5) = 1.68
